Assay results as given in PubChem BioAssay AID720591 (Broad Institute, 2013).
In all, about 1,200 compounds went through this assay and about 60 (5%) were called active. Another 1% or so got no clear call; they are omitted.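 The calls were made as follows: active = Decreasing signal and fitted IC50 at most twice the top valid tested dose; inconclusive = Bad fit or a level curve showing 30 to 70% inhibition; inactive = the rest.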 The list shows a part of the results. Entries with a potency or affinity are not part of this list.

Sequences of proteins named here, by UniProt entry; tags and fusion partners are left off. A change or cut given only in a name is not applied to a line headed by its entry.
UniProt Q9NXA8: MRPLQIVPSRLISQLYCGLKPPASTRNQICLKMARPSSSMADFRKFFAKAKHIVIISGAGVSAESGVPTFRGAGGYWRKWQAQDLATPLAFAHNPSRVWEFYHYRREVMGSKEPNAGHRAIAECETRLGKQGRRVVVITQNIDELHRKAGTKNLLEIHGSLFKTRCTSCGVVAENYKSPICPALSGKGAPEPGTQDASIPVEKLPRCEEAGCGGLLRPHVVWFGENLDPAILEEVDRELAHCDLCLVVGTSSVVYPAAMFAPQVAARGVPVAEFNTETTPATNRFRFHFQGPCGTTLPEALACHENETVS

Molecular target: NAD-dependent protein deacylase sirtuin-5, mitochondrial (Homo sapiens) (UniProt Q9NXA8)
Experiment: SIRT5 desuccinylase inhibitors, dose response, biochemical, fluorescence imaging, cherry-pick, set 5 (AID 720591);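 also: 0% = median of neutral control wells and -100% = median of positive control wells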
Settings: Purified SirT5, succinyl-peptide AMC, trypsin-coupled fluorescence; at 15 µM (top of the series) unless noted

Activity change, negative = inhibition, inactive:
CCCCCCN1C[C@@H](O)[C@H](n2cc(COC(=O)c3ccccc3)nn2)C[C@@H]1c1ccc(C)cc1 11.7%
CCCc1c(C)nc(N2CCN(c3ccc(F)cc3)CC2)[nH]c1=O -20.3%
Cc1c(C)n(C)c2ccc(C(=O)NCCN3CCOCC3)cc12 -21.6%
COc1nc(N2CCOCC2)nc(-n2cccc2)n1 -0.488%
COc1ccc(CCNC(=O)COC(=O)CCC(=O)c2ccc(F)cc2)cc1OC 16.3%
CCOc1cccc(C(=O)NC2CCCCC2)c1 -14.4%
CCCCNC(=O)CN(c1cccc(F)c1)S(C)(=O)=O 18.6%
CCOc1cc(C(=O)OC(C)C(=O)Nc2ccc(S(N)(=O)=O)cc2)ccc1OCC(=O)N1CCOCC1 (stereo not given) 3.63%
O=C1NC(Cc2ccc(O)cc2)c2nc3ccc(F)cc3c(=O)n2-c2cc3ccccc3cc21 (stereo not given) -27.3%
Clc1ccc2nc(CSc3ccccc3)cn2c1 17%
Cn1cc(C(=O)NCCc2ccccc2)c(=O)c2cc(S(=O)(=O)N3CCOCC3)ccc21 3.07%
NC(=O)CSc1nnc(-c2ccco2)n1-c1ccccc1 -33.6%
COc1ccc([C@H]2CC(=O)C[C@@H](CCn3cc(-c4cccnc4)nn3)O2)cc1 -23.4%
O=C(NCCCn1ccnc1)c1ccc(NS(=O)(=O)c2ccc(Cl)c(Cl)c2)cc1 8.85%
O=S(=O)(c1ccc(F)cc1)c1nc(-c2ccco2)oc1Nc1ccc(F)cc1 -1.22%
CCOC(=O)c1cccc(NC(=O)c2ccc3c(c2)OCO3)c1 -22.1%
CCc1cc2c(=O)c(-c3cnn(-c4ccccc4)c3)c(C)oc2cc1OCC(=O)Nc1cccc(C)c1 10.1%
Cc1ccc(NC(=O)C2CC(=O)n3ncnc3N2)cc1C (stereo not given) -28.3%
Cc1ccc2nc(NC3=NC(CC(=O)O)C(=O)N3)nc(C)c2c1 (stereo not given) 22.2%
COc1ccc(NC(=O)NCCN2CCN(c3cc(OC)ccc3OC)CC2)cc1 2.31%
Cc1nn(-c2ccccc2)c(Cl)c1C(=O)NNC(=O)c1ccccc1O -0.052%
Cc1ccc(CNC(=O)CCc2ccc(S(=O)(=O)NCC(C)C)cc2)cc1 -24.4%
COc1ccc(NC(=O)C2=CC=CN3CCS(=O)(=O)N=C23)c(OC)c1 -34.1%
OC(COc1ccc(Br)cc1)CN1CCC(Cc2ccccc2)CC1 (stereo not given) -2.68%
N#Cc1ccc(C(=O)OCC(=O)N2CCN(C(=O)c3ccco3)CC2)cc1 24.8%

In the list so far, two have an aryl thioether with sulfur outside any ring:
Activity change, negative = inhibition, inactive:
Clc1ccc2nc(CSc3ccccc3)cn2c1 17%
NC(=O)CSc1nnc(-c2ccco2)n1-c1ccccc1 -33.6%
